{"source": "patent US20160289737", "tested_on": "Vibhar transposase", "experiment": "binding assay", "details": "purified recombinant protein, protein details: US Application 20120301925", "note": "For at least one entry, the source does not settle the construct or the ends of the probe."}
{"sequence": "AGATGTGATCAAGAGACAG (double strand) [adapter 78]", "values": [{"measurement": "binding result", "setting": "20 pg human DNA, 80-180 ng/ml transposase, practically no nuclease degradation", "result": "binds"}]}
{"sequence": "AGATGTGATCAAGAGACAG (double strand) [adapter E8]", "values": [{"measurement": "binding result", "setting": "PS at several positions (FIG. 18), 20 pg human DNA, 80-180 ng/ml transposase, variant of adapter 78", "result": "binds"}]}
{"sequence": "CTGTCTCTTGATCACAAGT (double strand)", "values": [{"measurement": "binding result", "setting": "fragmentation/tagging of E. coli DNA, 5 mM MnCl2, Bicine pH 7.5, 46 or 56 C", "result": "binds"}]}
